{"sequences": {"note": "Chains of the proteins cited; added tags and fusions are not shown. Lines headed by an entry give the natural chain unless they say otherwise; changes in a name come on top.", "UniProt P08515, whole entry": "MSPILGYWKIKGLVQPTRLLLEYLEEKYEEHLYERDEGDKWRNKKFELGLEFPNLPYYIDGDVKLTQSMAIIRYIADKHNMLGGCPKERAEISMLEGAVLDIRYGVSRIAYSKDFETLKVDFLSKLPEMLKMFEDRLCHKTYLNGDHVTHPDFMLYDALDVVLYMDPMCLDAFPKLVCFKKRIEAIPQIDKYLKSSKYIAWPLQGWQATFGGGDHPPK", "UniProt P52926": "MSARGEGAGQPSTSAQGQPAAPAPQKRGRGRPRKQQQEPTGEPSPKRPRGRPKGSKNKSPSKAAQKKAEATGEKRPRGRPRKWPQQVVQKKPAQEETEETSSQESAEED"}, "source": "paper PMC4339810", "assay_in_all_cases": "EMSA", "key": {"GST-NPM1 1-295": {"tested_on": "GST-NPM1 1-295", "settings": "no HMGA, EMSA: 4 pmol HMGA preincubated 10 min at 4°C with GST-NPM1/GST in 25 mM Tris/HCl pH 8, 5 mM GSH (8 uL), then 0.1 pmol DNA for 10 min in 180 mM NaCl, 1 mM MgCl2, recombinant protein, protein details: N-terminal GST, label: 32P"}, "GST": {"target": "GST (UniProt P08515)", "settings": "0.5 and 10 pmol, no HMGA; EMSA: 4 pmol HMGA preincubated 10 min at 4°C with GST-NPM1/GST in 25 mM Tris/HCl pH 8, 5 mM GSH (8 uL); then 0.1 pmol DNA for 10 min in 180 mM NaCl, 1 mM MgCl2; recombinant protein; label: 32P"}, "HMGA2": {"target": "HMGA2 (UniProt P52926)", "settings": "GST-NPM1 0.5-10 pmol, complex decreases; EMSA: 4 pmol HMGA preincubated 10 min at 4°C with GST-NPM1/GST in 25 mM Tris/HCl pH 8, 5 mM GSH (8 uL); then 0.1 pmol DNA for 10 min in 180 mM NaCl, 1 mM MgCl2; recombinant protein; label: 32P"}, "HMGA1a": {"target": "T1, HMGA1a (UniProt P17096)", "T1 sequence (looked up, limits assumed)": "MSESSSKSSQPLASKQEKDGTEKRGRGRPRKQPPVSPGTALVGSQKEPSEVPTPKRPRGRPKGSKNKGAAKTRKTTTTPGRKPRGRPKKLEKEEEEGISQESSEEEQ", "settings": "GST-NPM1 0.5-30 pmol, complex decreases, disappears at 30 pmol; EMSA: 4 pmol HMGA preincubated 10 min at 4°C with GST-NPM1/GST in 25 mM Tris/HCl pH 8, 5 mM GSH (8 uL); then 0.1 pmol DNA for 10 min in 180 mM NaCl, 1 mM MgCl2; recombinant protein; label: 32P"}}, "note": "The exact form of at least one protein or probe is not confirmed. For some assays here: A negative result means that nothing was seen under these conditions. For some assays here: Weaker means in comparison with the reference protein, sequence or condition of that experiment. For some assays here: Where a protein sequence is shown, tags need not be part of it.", "data": [{"sequence": "AGAAAAACTCCATCTAAAAAAAAAAAAAAAAAAAAAAAAAAACA (double strand) [E3]", "values": [{"measurement": "binding result", "setting": "GST-NPM1 1-295; 6 and 30 pmol", "result": "no binding"}]}, {"sequence": "GACACATTAATCTATAATCAAATA (double strand) [HCRII]", "values": [{"measurement": "binding result", "setting": "GST-NPM1 1-295; 0.5-30 pmol", "result": "no binding"}, {"measurement": "binding result", "setting": "GST", "result": "no binding"}, {"measurement": "binding result", "setting": "HMGA2", "result": "binds more weakly"}, {"measurement": "binding result", "setting": "HMGA1a", "result": "binds more weakly"}]}]}
